The results in this text go back to PubChem BioAssay AID2685 (National Center for Advancing Translational Sciences (NCATS), 2010).

The assay can be described thus: qHTS Assay for Lipid Storage Modulators in Drosophila S3 Cells.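 For cell number change: cells counted by Cell Tracker Red CMTPX staining in the red channel.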 To be noted: BODIPY lipid droplet fluorescence, 18-24 h; for cell number change: measured here: cell count max response, cells fed with added oleic acid. The essentials: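 Drosophila S3 cells loaded with oleic acid (400 uM, as added) and compounds at several concentrations; lipid droplets imaged by 488-nm laser-scanning cytometry, 500–530 nm intensity and object ratio to cell channel. Percent activity normalized to 20 uM Triacsin C.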
(In qHTS, concentration-response curves come from the screen itself.)

Where [1] appears, read: measured here: lipid fluorescence (Fed channel) AC50, cells fed with added oleic acid.
Where [2] appears, read: measured here: cell number channel AC50, cells fed with added oleic acid.

Structures are written as SMILES. This is one part of the list. Further columns of the screen follow, without active or inactive calls. Compounds called inactive in the main read-out are mostly missing here. Words in brackets tell the shape of the fitted curve; partial curves, single points and poor fits give uncertain potencies.

In the case of `CCOC(=O)C1CCN(C(=O)c2c(-c3c(F)cccc3Cl)noc2C)CC1`, the cell number change is -9.6%. In addition, the AC50 (as a rule, the midpoint of the concentration-response curve, whichever way the signal moves) under setting [1] was 1.64 µM [falling, partial curve, poor fit].

Take `O=C(Nc1ccccc1)Nc1cc(S(=O)(=O)N2CCOCC2)ccc1N1CCCC1`: the cell number change was 10.2%. Regarding `COc1ccc(C(C)=O)cc1COc1ccc([N+](=O)[O-])c(C)c1`, the cell number change is 27.2%. Further, the AC50 under setting [1] was 0.13 µM [falling, full curve, poor fit]. `CCOc1ccc(CCNC(=O)COC(=O)c2ccc(C)s2)cc1OCC`: the AC50 reads like this: under setting [2], 3.66 µM [falling, partial curve, poor fit]; under setting [1], 3.66 µM [falling, partial curve]. On to `O=C1/C(=C/c2cccs2)SC(=S)N1CC(=O)N1CCCCC1CCO` (stereo unspecified), for which the AC50 under setting [2] is 6.51 µM [rising, single point]. Turning to `CCC(C)NC(=O)c1ccc(CS(=O)(=O)c2ccc(OC)cc2)o1` (stereo unspecified), the cell number change came to 34.5%. The AC50 under setting [2] is 11.6 µM [rising, partial curve, poor fit]. Moreover, the AC50 under setting [1] is 16.4 µM [rising, single point]. As for `Cc1onc(-c2ccccc2)c1C(=O)Nc1ccc(S(=O)(=O)NC2=NCCCCC2)cc1`, the cell number change was -7.84%. For the same compound, under setting [1], the AC50 was 0.164 µM [falling, full curve, poor fit].

In the case of `Cc1c(C(=O)Nc2ccc(-n3cnnn3)cc2)oc2ccccc12`, the cell number change turned out to be 24.5%. The AC50 under setting [2] was 0.92 µM [rising, full curve, poor fit].

In the case of `COC(=O)c1sc2nc(SCc3ccccc3C)n(N)c(=O)c2c1C`, the cell number change was determined as 14%. For the same compound, the AC50 under setting [1] was 0.92 µM [rising, full curve].

As to `COc1ccc(NC(C)=O)cc1NC(=O)C1CCCN1C(=O)c1cccs1` (stereo unspecified), the cell number change is -4.02%. As to `O=S(=O)(c1ccc(Br)c2ccccc12)N1CCOCC1`, the cell number change came out at 4.74%. In addition, under setting [1], the AC50 is 0.13 µM [rising, full curve, poor fit]. `CN(CCc1ccccn1)C(=S)Nc1ccc(Cl)cc1Cl`: the AC50 is 3.66 µM [rising, partial curve] under setting [2] and 6.51 µM [rising, single point] under setting [1].

Consider `CCn1nnc(NC(=O)c2ccc([N+](=O)[O-])o2)n1`, for which the cell number change was -0.452%. On to `COc1cc(C(C)=O)ccc1OCC(O)CNCC(O)c1ccccc1` (stereo unspecified), for which the cell number change was 25.5%. Moreover, under setting [1], the AC50 is 3.66 µM [rising, full curve, poor fit]. Turning to `Oc1ccc(Br)cc1CNc1nccs1`, the cell number change is 17.8%. In addition, the AC50 under setting [2] is 2.06 µM [rising, partial curve].

Take `Cc1ccc(S(=O)(=O)Cc2ccc(C(=O)O)o2)cc1`: the cell number change is -49.6%. The AC50 under setting [2] was 29.1 µM [falling, single point]. As to `O=C(CN1C(=O)NC2(CCSC2)C1=O)NCc1ccccc1` (stereo unspecified), the cell number change is -31%. The AC50 under setting [2] is 1.64 µM [falling, partial curve, poor fit].
